The other results are listed elsewhere or left out. Repeats are few or missing, and single values can be far off.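 The apoptosis fraction was the count of cleaved-PARP antibody-stained nuclei relative to all DNA-stained nuclei, imaged in 1,536-well plates. Screening doses were set so most cells survived, and baseline and induced cleaved-PARP levels vary greatly across cell lines.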
Experiments:
Assay in all cases: cleaved PARP positive nuclei fraction relative to DMSO control; melanoma cells; higher = more apoptosis
Details in all cases: library dose: low library concentration; 72 h
501Mel = system: 501Mel
A101D = system: A101D
A2058 = system: A2058
A375 = system: A375
C32 = system: C32
CBRC008 = system: CBRC008 (line from a melanoma biopsy)
CBRC014 = system: CBRC014 (line from a melanoma biopsy)
CBRC016 = system: CBRC016 (line from a melanoma biopsy)
CBRC017 = system: CBRC017 (line from a melanoma biopsy)
CBRC034 = system: CBRC034 (line from a melanoma biopsy)
COLO792 = system: COLO792
COLO800 = system: COLO800
COLO829 = system: COLO829
G361 = system: G361
IPC-298 = system: IPC-298
IST-MEL1 = system: IST-MEL1
LB2518-MEL = system: LB2518-MEL
LOXIMVI = system: LOXIMVI
MEL-HO = system: MEL-HO

| Compound | cleaved PARP positive nuclei fraction (501Mel) | cleaved PARP positive nuclei fraction (A101D) | cleaved PARP positive nuclei fraction (A2058) | cleaved PARP positive nuclei fraction (A375) | cleaved PARP positive nuclei fraction (C32) | cleaved PARP positive nuclei fraction (CBRC008) | cleaved PARP positive nuclei fraction (CBRC014) | cleaved PARP positive nuclei fraction (CBRC016) | cleaved PARP positive nuclei fraction (CBRC017) | cleaved PARP positive nuclei fraction (CBRC034) | cleaved PARP positive nuclei fraction (COLO792) | cleaved PARP positive nuclei fraction (COLO800) | cleaved PARP positive nuclei fraction (COLO829) | cleaved PARP positive nuclei fraction (G361) | cleaved PARP positive nuclei fraction (IPC-298) | cleaved PARP positive nuclei fraction (IST-MEL1) | cleaved PARP positive nuclei fraction (LB2518-MEL) | cleaved PARP positive nuclei fraction (LOXIMVI) | cleaved PARP positive nuclei fraction (MEL-HO) |
| --- | --- | --- | --- | --- | --- | --- | --- | --- | --- | --- | --- | --- | --- | --- | --- | --- | --- | --- | --- |
| CS(=O)(=O)c1ccc(C(=O)Nc2ccc(Cl)c(-c3ccccn3)c2)c(Cl)c1 [vismodegib] + CCCCCCCCc1ccc(CCC(N)(CO)CO)cc1 [fingolimod] (first compound 1 µM, partner dose 2 µM) | 252% | 88.8% | 74.3% | 106% | 91% | 51.9% | 97.3% | 120% | 152% | 64.3% | 81.3% | 213% | 90.6% | 34.1% | 49% | 198% | 132% | 250% | 39.1% |
| Cn1cnc2c(F)c(Nc3ccc(Br)cc3Cl)c(C(=O)NOCCO)cc21 [selumetinib] + C#Cc1cccc(Nc2ncnc3cc(OCCOC)c(OCCOC)cc23)c1 [erlotinib] (first compound 0.015 µM, partner dose 0.8 µM) | 2530% | 276% | 150% | 108% | 82.5% | 191% | 99.2% | 82.7% | 185% | 351% | 197% | 29.4% | 29.6% | 80.5% | 196% | 68.1% | 138% | 56.9% | 146% |
| Cn1cnc2c(F)c(Nc3ccc(Br)cc3Cl)c(C(=O)NOCCO)cc21 [selumetinib] + Nc1nc(F)nc2c1ncn2[C@@H]1O[C@H](CO)[C@@H](O)[C@@H]1O [fludarabine] (first compound 0.015 µM, partner dose 0.2 µM) | 13800% | 159% | 138% | 1290% | 89.4% | 80.5% | 90.1% | 72.5% | 141% | 133% | 48% | 104% | 80.7% | 136% | 133% | 128% | 64.3% | 83.1% | 347% |
| CN(c1ncccc1CNc1nc(Nc2ccc3c(c2)CC(=O)N3)ncc1C(F)(F)F)S(C)(=O)=O + C[C@@H](Oc1cc(-c2cnn(C3CCNCC3)c2)cnc1N)c1c(Cl)ccc(F)c1Cl [Crizotinib] (first compound 0.08 µM, partner dose 0.2 µM) | 101% | 50.8% | 137% | 57.4% | 92.8% | 47% | 111% | 126% | 103% | 146% | 99.1% | 81.8% | 138% | 79% | 37.3% | 303% | 100% | 115% | 29.8% |
| CCN(CC)CCNC(=O)c1c(C)[nH]c(/C=C2\C(=O)Nc3ccc(F)cc32)c1C [sunitinib] + Cc1cc(Nc2cc(N3CCN(C)CC3)nc(/C=C/c3ccccc3)n2)n[nH]1 [ENMD2076] (first compound 0.4 µM, partner dose 0.04 µM) | 67.8% | 41.1% | 104% | 116% | 75.6% | 38.8% | 91.1% | 163% | 77.4% | 111% | 98.2% | 71.1% | 86.1% | 98.3% | 82.2% | 39.5% | 95.8% | 251% | 38.2% |
| Cn1sc(=O)n(Cc2ccccc2)c1=O + CNC(=O)c1cc(Oc2ccc(NC(=O)Nc3ccc(Cl)c(C(F)(F)F)c3)cc2)ccn1 [sorafenib] (first compound 0.4 µM, partner dose 0.4 µM) | 72.7% | 87.7% | 156% | 130% | 69.7% | 72.4% | 100% | 90.7% | 118% | 179% | 77% | 103% | 77.7% | 70.2% | 43.1% | 124% | 96.9% | 59% | 78.9% |
| CCCCCCCCc1ccc(CCC(N)(CO)CO)cc1 [fingolimod] + CO[C@H]1C[C@@H]2CC[C@@H](C)[C@@](O)(O2)C(=O)C(=O)N2CCCC[C@H]2C(=O)O[C@H]([C@H](C)C[C@@H]2CC[C@@H](OCCO)[C@H](OC)C2)CC(=O)[C@H](C)/C=C(\C)[C@@H](O)[C@@H](OC)C(=O)[C@H](C)C[C@H](C)/C=C/C=C/C=C/1C [everolimus] (first compound 2 µM, partner dose 0.02 µM) | 14000% | 131% | 156% | 3960% | 94.4% | 76.8% | 141% | 42.9% | 160% | 43.5% | 117% | 147% | 258% | 23.2% | 116% | 180% | 129% | 260% | 198% |

Source: the supplement of paper PMC4604168 (melanoma cell lines)
